Experimental data published in publication PMC4059916.
Results are given in words; binding and its absence hold for the method and conditions named. Binding calls can cover weak binding; strength is not graded here. Sequences can lack the tags named with a protein.

Protein sequences, listed by entry. Tags and fused reporters are not part of them. Lines headed by an entry give the natural chain unless they say otherwise; changes in a name come on top.
UniProt Q13637: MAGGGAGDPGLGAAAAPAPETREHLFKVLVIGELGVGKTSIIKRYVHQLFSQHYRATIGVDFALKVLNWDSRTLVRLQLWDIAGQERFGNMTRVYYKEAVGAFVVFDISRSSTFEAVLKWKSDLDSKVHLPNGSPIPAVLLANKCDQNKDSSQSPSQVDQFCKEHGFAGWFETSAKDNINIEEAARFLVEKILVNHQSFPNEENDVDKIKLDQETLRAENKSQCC

Target: GSTRab32(Q85L) mutated at M91/R93 (Switch-II) (UniProt Q13637)
Experiment: pull-down; GSTRab32(Q85L) or GST as bait on GSH-sepharose, VARP451-640His6 as prey; 25-50 μg bait, 300 μg prey in 500 μl; 5 mM MgCl2, 0.5 mM TCEP, 100 μM matching nucleotide; 1 hr at 4°C; washes with 1% NP40; Coomassie and anti-His probe blot; both purified

B1: VARP451-640His6 (first ankyrin repeat domain, ANKRD1), wild type (domain or fragment, UniProt Q96NW4 451-640)
chain: PSVVTPFSRDDRGHTPLHVAAVCGQASLIDLLVSKGAMVNATDYHGATPLHLACQKGYQSVTLLLLHYKASAEVQDNNGNTPLHLACTYGHEDCVKALVYYDVESCRLDIGNEKGDTPLHIAARWGYQGVIETLLQNGASTEIQNRLKETPLKCALNSKILSVMEAYHLSFERRQKSSEAPVQSPQRSVD
Q: How did the binding turn out when B1 was run?
A: binds
